# Experimental data from article PMC12238390.
# The chains behind the UniProt entries cited, without tags or fusion partners. Residues count along the entry.
# UniProt P63104: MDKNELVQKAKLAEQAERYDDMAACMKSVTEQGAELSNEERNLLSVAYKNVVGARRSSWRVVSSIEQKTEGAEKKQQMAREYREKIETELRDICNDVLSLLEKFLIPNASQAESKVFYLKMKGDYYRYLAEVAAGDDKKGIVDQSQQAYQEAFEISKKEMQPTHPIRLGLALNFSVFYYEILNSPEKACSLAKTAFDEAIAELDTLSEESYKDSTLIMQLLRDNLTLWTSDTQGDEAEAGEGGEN
# UniProt P40763: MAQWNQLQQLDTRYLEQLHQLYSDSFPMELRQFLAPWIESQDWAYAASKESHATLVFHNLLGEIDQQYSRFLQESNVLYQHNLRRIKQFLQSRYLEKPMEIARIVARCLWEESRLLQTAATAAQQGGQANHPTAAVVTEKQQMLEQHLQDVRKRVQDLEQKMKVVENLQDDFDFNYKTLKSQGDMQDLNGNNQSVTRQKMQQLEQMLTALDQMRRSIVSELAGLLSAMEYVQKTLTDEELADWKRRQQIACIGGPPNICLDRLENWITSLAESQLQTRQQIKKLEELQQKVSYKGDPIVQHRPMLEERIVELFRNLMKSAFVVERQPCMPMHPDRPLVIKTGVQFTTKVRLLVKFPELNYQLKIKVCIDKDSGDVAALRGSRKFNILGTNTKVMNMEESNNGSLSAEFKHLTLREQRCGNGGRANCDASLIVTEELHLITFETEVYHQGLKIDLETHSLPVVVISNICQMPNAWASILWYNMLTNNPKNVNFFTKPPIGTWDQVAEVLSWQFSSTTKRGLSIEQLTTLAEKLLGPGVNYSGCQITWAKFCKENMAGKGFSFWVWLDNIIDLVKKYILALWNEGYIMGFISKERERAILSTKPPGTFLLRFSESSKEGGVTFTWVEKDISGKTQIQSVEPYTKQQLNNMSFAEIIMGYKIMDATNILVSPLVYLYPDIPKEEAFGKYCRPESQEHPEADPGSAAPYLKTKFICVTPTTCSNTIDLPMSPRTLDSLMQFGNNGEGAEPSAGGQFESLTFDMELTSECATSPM
# UniProt Q8N122: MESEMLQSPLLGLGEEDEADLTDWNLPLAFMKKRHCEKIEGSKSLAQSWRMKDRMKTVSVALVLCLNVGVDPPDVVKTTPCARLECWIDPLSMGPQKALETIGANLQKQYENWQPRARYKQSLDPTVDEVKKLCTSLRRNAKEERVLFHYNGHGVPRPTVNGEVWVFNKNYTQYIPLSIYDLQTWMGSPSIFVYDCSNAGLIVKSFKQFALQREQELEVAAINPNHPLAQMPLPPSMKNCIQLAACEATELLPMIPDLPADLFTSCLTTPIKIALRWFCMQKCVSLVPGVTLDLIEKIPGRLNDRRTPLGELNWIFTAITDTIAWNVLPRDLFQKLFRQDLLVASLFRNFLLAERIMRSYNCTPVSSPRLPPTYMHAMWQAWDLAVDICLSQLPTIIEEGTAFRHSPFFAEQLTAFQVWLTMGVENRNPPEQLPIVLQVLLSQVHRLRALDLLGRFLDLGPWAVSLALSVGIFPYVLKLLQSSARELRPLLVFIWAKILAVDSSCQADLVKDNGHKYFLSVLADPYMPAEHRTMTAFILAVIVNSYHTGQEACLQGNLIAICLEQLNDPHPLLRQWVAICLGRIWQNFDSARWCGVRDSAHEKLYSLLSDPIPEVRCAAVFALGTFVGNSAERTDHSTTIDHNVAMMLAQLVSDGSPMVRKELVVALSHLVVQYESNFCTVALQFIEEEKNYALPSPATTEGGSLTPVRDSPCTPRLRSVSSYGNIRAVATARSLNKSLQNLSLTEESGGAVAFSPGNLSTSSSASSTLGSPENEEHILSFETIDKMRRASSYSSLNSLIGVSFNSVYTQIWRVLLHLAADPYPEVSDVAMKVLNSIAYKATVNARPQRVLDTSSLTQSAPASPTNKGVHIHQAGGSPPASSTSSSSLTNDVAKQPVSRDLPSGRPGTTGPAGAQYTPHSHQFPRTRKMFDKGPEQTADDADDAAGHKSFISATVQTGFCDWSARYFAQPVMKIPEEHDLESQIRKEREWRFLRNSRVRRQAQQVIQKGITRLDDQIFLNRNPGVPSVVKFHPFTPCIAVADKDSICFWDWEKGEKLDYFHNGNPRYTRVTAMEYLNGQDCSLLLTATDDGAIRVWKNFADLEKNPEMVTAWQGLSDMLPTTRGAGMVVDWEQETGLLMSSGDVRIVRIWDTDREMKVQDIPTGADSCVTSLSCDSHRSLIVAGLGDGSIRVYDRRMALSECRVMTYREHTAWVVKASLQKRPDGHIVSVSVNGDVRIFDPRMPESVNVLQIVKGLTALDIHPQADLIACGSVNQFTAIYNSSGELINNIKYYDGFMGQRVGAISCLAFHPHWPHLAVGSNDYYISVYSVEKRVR
# UniProt P30530, residues 26-894: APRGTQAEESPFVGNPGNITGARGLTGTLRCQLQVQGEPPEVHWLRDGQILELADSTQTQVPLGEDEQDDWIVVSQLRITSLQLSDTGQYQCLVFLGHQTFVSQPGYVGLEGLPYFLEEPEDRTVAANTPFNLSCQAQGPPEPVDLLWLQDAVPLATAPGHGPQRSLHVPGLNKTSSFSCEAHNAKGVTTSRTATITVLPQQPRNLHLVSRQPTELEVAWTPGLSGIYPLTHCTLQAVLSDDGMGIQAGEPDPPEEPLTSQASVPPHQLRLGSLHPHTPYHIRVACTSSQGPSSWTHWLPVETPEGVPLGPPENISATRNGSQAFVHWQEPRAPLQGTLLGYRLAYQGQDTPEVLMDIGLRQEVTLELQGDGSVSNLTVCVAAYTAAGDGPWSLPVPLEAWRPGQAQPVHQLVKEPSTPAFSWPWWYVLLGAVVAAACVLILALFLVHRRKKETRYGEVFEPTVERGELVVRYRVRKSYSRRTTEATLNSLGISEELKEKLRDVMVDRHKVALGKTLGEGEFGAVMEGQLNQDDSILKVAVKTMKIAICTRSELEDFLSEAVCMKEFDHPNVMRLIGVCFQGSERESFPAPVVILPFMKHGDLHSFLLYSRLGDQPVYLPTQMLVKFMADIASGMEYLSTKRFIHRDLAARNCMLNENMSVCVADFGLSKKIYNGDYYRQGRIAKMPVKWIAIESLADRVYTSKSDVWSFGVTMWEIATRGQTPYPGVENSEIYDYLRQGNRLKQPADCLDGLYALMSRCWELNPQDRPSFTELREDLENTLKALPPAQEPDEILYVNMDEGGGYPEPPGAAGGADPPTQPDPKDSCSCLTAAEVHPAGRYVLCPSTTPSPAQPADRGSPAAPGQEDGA
# UniProt Q12778: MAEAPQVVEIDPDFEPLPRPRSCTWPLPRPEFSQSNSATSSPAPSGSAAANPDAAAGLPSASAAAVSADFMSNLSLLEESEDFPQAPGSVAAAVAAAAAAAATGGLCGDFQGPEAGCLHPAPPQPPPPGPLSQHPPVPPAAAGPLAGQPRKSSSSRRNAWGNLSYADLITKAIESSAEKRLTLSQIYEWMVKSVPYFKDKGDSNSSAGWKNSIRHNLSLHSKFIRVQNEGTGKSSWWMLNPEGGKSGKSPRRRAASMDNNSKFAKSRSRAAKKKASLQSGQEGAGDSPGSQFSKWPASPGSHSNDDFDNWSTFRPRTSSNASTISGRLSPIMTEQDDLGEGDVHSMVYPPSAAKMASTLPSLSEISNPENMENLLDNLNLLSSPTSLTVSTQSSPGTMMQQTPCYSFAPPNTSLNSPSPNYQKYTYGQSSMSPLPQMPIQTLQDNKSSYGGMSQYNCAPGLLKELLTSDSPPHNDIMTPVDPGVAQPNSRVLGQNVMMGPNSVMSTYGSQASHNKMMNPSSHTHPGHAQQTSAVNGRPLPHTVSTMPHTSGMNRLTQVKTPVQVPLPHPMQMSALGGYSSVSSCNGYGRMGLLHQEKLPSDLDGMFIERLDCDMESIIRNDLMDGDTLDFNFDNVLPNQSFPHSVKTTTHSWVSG
# UniProt O43524: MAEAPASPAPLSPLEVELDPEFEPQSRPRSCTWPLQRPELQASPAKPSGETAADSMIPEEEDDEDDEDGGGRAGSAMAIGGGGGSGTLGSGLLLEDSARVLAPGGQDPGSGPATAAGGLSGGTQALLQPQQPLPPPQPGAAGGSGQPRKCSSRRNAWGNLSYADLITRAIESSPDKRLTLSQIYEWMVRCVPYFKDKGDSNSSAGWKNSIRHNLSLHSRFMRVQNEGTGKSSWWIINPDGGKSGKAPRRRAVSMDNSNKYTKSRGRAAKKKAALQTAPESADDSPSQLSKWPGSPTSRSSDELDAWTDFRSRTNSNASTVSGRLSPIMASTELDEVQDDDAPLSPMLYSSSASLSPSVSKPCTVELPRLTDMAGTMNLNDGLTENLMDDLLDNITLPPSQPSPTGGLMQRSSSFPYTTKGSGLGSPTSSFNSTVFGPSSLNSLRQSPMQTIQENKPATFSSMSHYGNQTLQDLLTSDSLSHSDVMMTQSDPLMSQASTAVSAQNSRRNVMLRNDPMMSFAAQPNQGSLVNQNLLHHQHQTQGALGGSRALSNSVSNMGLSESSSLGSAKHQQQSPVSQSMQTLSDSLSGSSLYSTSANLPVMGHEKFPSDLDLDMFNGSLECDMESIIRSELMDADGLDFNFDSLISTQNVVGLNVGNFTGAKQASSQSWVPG
# These are yes or no findings as the source states them, for the method shown. Binding seen in cells or lysates may run through a third protein. Some results given as binding are weak or reduced against the parent protein; the word gives no strength.
# Assays:
# [1] = molecular target: Myc epitope-tagged 14-3-3ζ (UniProt P63104); experiment: co-IP; HEK293T cells transiently transfected with Myc-tagged 14-3-3 isoforms, incubated with DMSO or 500 µM BA for 24 h, lysed; IP with antibodies to Myc, immunoblot of endogenous client proteins
# [2] = molecular target: recombinant glutathione S-transferase (GST)-tagged 14-3-3ζ (UniProt P63104); experiment: pull-down; HEK293T or BxPC-3 cells treated with DMSO or 1000 µM BA for 100 min, lysed; pull-down with recombinant GST-tagged 14-3-3ζ, immunoblot; only the target purified
# [3] = molecular target: recombinant glutathione S-transferase (GST)-tagged 14-3-3ζ (UniProt P63104); experiment: pull-down; A549 cell lysates, with or without BA; pull-down with GST-tagged 14-3-3ζ (Fig. S2c); only the target purified
binding [1],binding [2],binding [3],Substance
binds,binds,,signal transducer and activator of transcription 3 (STAT3) (from UniProt P40763 1-770)
binds,,,Raptor (from UniProt Q8N122 1-1335)
,,binds,Axl (from UniProt P30530 26-894) (receptor)
binds,,,FOXO1 (from UniProt Q12778 1-655)
binds,,,FOXO3a (from UniProt O43524 1-673)
